Measurements from publication PMC9352765.
These are yes or no findings as the source states them, for the method shown. For some of these results: Binding seen in cells or lysates may run through a third protein. Some binding calls cover weakened binding; strength is not graded here. One block for each binder: values may come before it.

Tests used:
[1] = target: T1, Syt13-BirA recombinant protein (mouse) (UniProt Q9EQT6); experiment: co-IP; MDCK cells; called co-IP in the results; the methods tell only of the precipitation on NeutrAvidin beads of the BioID approach, followed by western blot
T1 sequence: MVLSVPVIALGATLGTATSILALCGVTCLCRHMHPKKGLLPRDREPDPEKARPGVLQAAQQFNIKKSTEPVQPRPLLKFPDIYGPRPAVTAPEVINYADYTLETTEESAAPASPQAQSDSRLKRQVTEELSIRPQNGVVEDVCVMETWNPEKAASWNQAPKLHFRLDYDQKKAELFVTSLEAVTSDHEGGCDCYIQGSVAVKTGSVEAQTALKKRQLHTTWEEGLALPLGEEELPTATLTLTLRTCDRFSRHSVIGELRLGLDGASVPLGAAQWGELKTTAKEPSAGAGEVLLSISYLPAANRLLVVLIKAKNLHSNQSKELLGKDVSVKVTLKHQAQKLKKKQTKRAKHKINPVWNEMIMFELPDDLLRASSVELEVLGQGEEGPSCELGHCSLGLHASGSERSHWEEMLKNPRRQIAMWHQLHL

[2] = target: Syt13-C2AB (aa 39–426 of mouse Syt13) (mouse) (UniProt Q9EQT6); experiment: dynamic light scattering; Zetasizer Nano ZS; protein above 0.5 mg/mL in 50 mM Tris, 150 mM NaCl, 1 mM DTT, pH 8.0; both purified
[3] = target: Syt13-C2A (aa 39 to 282 of mouse Syt13) (mouse) (UniProt Q9EQT6); experiment: as above
[4] = target: Syt13-C2B (aa 289–426 of mouse Syt13) (mouse) (UniProt Q9EQT6); experiment: as above

- binding [1]: binds
B1: Caveolin-1 (protein, UniProt P33724 1-178)
chain: MSGGKYVDSEGHLYTVPIREQGNIYKPNNKAMAEEMSEKQVYDAHTKEIDLVNRDPKHLNDDVVKIDFEDVIAEPEGTHSFDGIWKASFTTFTVTKYWFYRLLSALFGIPMALIWGIYFAILSFLHIWAVVPCIKSFLIEIQCISRVYSIYVHTFCDPFFEAVGKIFSNIRINMQKET

- binding [2]: no binding (tested: above 0.5 mg/mL)
B2: Syt13-C2AB (aa 39–426 of mouse Syt13) (domain or fragment, UniProt Q9EQT6 39-426)
chain: LLPRDREPDPEKARPGVLQAAQQFNIKKSTEPVQPRPLLKFPDIYGPRPAVTAPEVINYADYTLETTEESAAPASPQAQSDSRLKRQVTEELSIRPQNGVVEDVCVMETWNPEKAASWNQAPKLHFRLDYDQKKAELFVTSLEAVTSDHEGGCDCYIQGSVAVKTGSVEAQTALKKRQLHTTWEEGLALPLGEEELPTATLTLTLRTCDRFSRHSVIGELRLGLDGASVPLGAAQWGELKTTAKEPSAGAGEVLLSISYLPAANRLLVVLIKAKNLHSNQSKELLGKDVSVKVTLKHQAQKLKKKQTKRAKHKINPVWNEMIMFELPDDLLRASSVELEVLGQGEEGPSCELGHCSLGLHASGSERSHWEEMLKNPRRQIAMWHQLHL

- binding [3]: no binding (tested: above 0.5 mg/mL)
B3: Syt13-C2A (aa 39 to 282 of mouse Syt13) (domain or fragment, UniProt Q9EQT6 39-282)
chain: LLPRDREPDPEKARPGVLQAAQQFNIKKSTEPVQPRPLLKFPDIYGPRPAVTAPEVINYADYTLETTEESAAPASPQAQSDSRLKRQVTEELSIRPQNGVVEDVCVMETWNPEKAASWNQAPKLHFRLDYDQKKAELFVTSLEAVTSDHEGGCDCYIQGSVAVKTGSVEAQTALKKRQLHTTWEEGLALPLGEEELPTATLTLTLRTCDRFSRHSVIGELRLGLDGASVPLGAAQWGELKTTAK

- binding [4]: no binding (tested: above 0.5 mg/mL)
B4: Syt13-C2B (aa 289–426 of mouse Syt13) (domain or fragment, UniProt Q9EQT6 289-426)
chain: GEVLLSISYLPAANRLLVVLIKAKNLHSNQSKELLGKDVSVKVTLKHQAQKLKKKQTKRAKHKINPVWNEMIMFELPDDLLRASSVELEVLGQGEEGPSCELGHCSLGLHASGSERSHWEEMLKNPRRQIAMWHQLHL
